At least one compound was matched to its structure with a doubt left.
Test system: CHO-K1 cells transfected with Rluc:PKA:EYFP (cellular PKA enzyme)
Experiment: BRET phosphorylation assay with Rluc:PKA:EYFP
Type: cell-based

## C=C[C@@]1(C)CC(=O)[C@]2(O)[C@@]3(C)[C@@H](O)CCC(C)(C)[C@@H]3[C@H](O)[C@H](OC(C)=O)[C@@]2(C)O1 [forskolin]
Forskolin at various concentrations, coelenterazine h 5 μM, 30° C.
  effect on the BRET ratio (550/470) over time: decreases the BRET ratio
Ratio decreases with an increase in forskolin concentration
  dose dependence of the change in the BRET ratio: dose-dependent
